Measurements: patent US4910203A, “Pteridine compounds” (priority 1984, dated 1990)

Test system: male Wistar rats
Details: furosemide 8.27 mg/kg i.v. alone, 1.5 hours, mean
Experimental: They were orally given 20 ml/kg of an 0.9% NaCl solution just before the test substance was administered intravenously. […] Injection was into the caudal vein under light ether anasthesia. As a rule six test animals were used per test. The animals were individually placed into diuresis cages and the urine was collected after 1.5 hours. Analysis was performed as for the determination of potency given above. IA stands for 2,4,7-triamino-6-[4-(2-hydroxy-3-dimethylaminopropoxy)phenyl]-pteridine.

With `NS(=O)(=O)c1cc(C(=O)O)c(NCc2ccco2)cc1Cl` [Furosemide, 4-chloro-N-furfuryl-5-sulfamoylanthranilic acid] the “Ca^2+ excretion” value (control 0.07) was 0.13 mmol/kg, the “Mg^2+ excretion” value (control 0.08) was 0.11 mmol/kg and the “K^+ excretion” value (control 0.33) was 0.68 mmol/kg. For the same molecule, the “Na^+ excretion” value (control 0.61) was 6.77 mmol/kg.
